Data reported in US20060270837A1 (published 2006).

These binders were tested against Soluble, purified TR4 fusion protein (human) (assay: specificity phage ELISA, antigen coated at 1 ug/ml, anti-M13-HRP detection).

Row | binding | Binder
1 | binds | scFv T1014G04 (scFv) scFv: EVQLVQSGADVKRPGASVKVSCKISGDSFTAYFIHWVRQAPGQGLEWMGWFNPDSGTADSAQKFHGRVTMTRDTSSSTAFLELSRLRSDDTAVYYCVRQHRGNTFAPWGRGTLVTVSSGGGGSGGGGSGGGGSAQPVLTQPPSASGSPGQSVTISCTGTSSDVGSYEYVSWYQQHPGKAPRLMISEVNKRPSGVPNRFSGSKSGNTASLTVSGLQADDEADYYCSSYAGSNNWVFGGGTKVTVLG
2 | binds | scFv T1014B11 (scFv) scFv: EVQLVQSGAEVKKPGASVKVSCKISGDSFTAYFIHWLRQAPGEGLEWMGWFNPISGTAGSPQKFHGRVAMTRDTSISTAYMELTRLASDDTAIYYCARQHHSNTFDPWGQGTLVTVSSGGGGSGGGGSGGGGSAQSALTQPASVSGSPGQSITISCTGTNSDVGGYNYVSWYQQHPGKAPKLMIYEVNNRPSGVSNRFSGSKSGNTASLTISGLQADDEADYYCSSYTTSNTWVFGGGTKLTVLG
3 | binds | scFv T1014G03 (scFv) scFv: EVQLVQSGAEVKMPGASVKLSCRVSGDTFTAYFIHWVRQAPGQGLEWMGWFNPISGTAGSAEKFRGRVAMTRDTSISTAYMELNRLTFDDTAVYYCARQHRGNTFDPWGQGTLVTVSSGGGGSGGGGSGGGGSAQSALTQPASVSGSPGQSITISCTGTSSDIGAYKYVSWYQQHPGKAPKLVIYEVSNRPSGVSSRFSGSKSGQTASLTISGLQADDEADYYCNSYQGYNTWVFGGGTKVTVLG
4 | binds | scFv T1014F08 (scFv) scFv: EVQLVQSGAEVKKPGASVKLSCRVSGDTFTAYFIHWVRQAPGQGPEWMGWFNPISGTAGSAARFRGRVAMTRDTSISTAYMELNRLTFDDTAVYYCARQHRGNTFDPWGKGTLVTVSSGGGGSGGGGSGGGGSALPVLTQPPSASGSPGQSVTISCTGTSSDVGGYKYVSWYQQHPGKAPKLMIYEVSMRPSGVPDRFSGSKSGNTASLTVSGLQAEDEADYYCASYAGSNNWVFGGGTKLTVLG
5 | binds | scFv T1014A04 (scFv) scFv: EVQLVQSGADVKRPGASVKVSCKISGDSFNAYFIHWVRQAPGQGLEWMGWFNPDSGTADSAQKFHGRVTMTRDTSSSTAFLELSRLRSDDTAVYYCVRQHRGNTFAPWGRGTMVTVSSGGGGSGGGGSGGGGSAQSVLTQPPSASGSPGQSVTISCTGTTSDVGGYNYVSWYQQHPGKAPKLMIYGVNQRPSGVPDRFSGSKSGNTASLTVSGLQAEDEADYYCSSYAGSNNWVFGGGTKLTVLG

These are yes or no findings as the source states them, for the method shown. Binding can be weak; no strength is given.
